The other results are listed elsewhere or left out. Values are raw readings; no control value is given beside them.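 Primary screen: polymyxin B was added at a level permeabilizing Salmonella outer membranes while sparing inner membranes. DMSO wells, both with and without polymyxin B, established maximum growth. Plate-to-plate variation meant each plate was ranked on its own, and the lowest-OD600 compounds were selected as hits.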
System: Salmonella enterica serovar Typhimurium SL1344
Assay: bacterial growth OD600 after 18 h with compound and polymyxin B; higher = more bacterial growth (less inhibition)
Details: 50 µM, Mueller-Hinton broth

Structure (SMILES) | bacterial growth OD600 (polymyxin B 0.75 µg/mL) | bacterial growth OD600 (polymyxin B 1 µg/mL)
O=C(Nc1ccc(-c2cccc(F)c2)cc1)C1CCCN(Cc2nccs2)C1 (configuration not stated) | 0.013 | –
CN(Cc1cc(-c2ccccc2)[nH]n1)C(=O)c1cn(Cc2ccccc2Cl)nn1 | – | 0.01
CCOC(=O)CNC(=O)NC1CC(=O)N(C2CCCCCC2)C1 (configuration not stated) | – | 0.979
COCCCN1C(=O)CC(CC(=O)N2CC3CCCC2C3)(c2ccccc2OC)C1=O (configuration not stated) | 0.834 | –
O=C(NCc1cccnc1-n1cnc2ccccc21)c1ccoc1 | – | 0.904
CN1CCCC(CCc2ccccc2F)C1 (configuration not stated) | 0.805 | –
C=CCCC(=O)NCC1Cc2cccc(-c3ncccn3)c2O1 (configuration not stated) | 0.897 | –
COc1ccc(NC(=O)CCC2CCCN(C(=O)CN3CCCC3=O)C2)cc1Cl (configuration not stated) | – | 1.1
c1cc(CN2CCc3[nH]nc(-c4ccc5c(c4)OCO5)c3C2)cs1 | 0.779 | –
Cc1c(C(C)NC(=O)c2coc(COc3cccc(F)c3)n2)cnn1C (configuration not stated) | – | 0.965
O=C1OCCCN1CCNc1ccc(-c2nc(-c3ccccc3F)no2)cn1 | – | 0.678
Cc1ccccc1CCC1CCCN(C(=O)c2ocnc2C)C1 (configuration not stated) | 0.501 | –
CN(C(=O)c1ccco1)C(Cc1ccccc1Cl)C1CCN(Cc2ccc3c(c2)CCO3)CC1 (configuration not stated) | 0.799 | –
CCN(Cc1nccn1C)C(=O)c1ccc(NCc2ccccc2)nc1 | 0.964 | –
O=C(NCC[C@@H]1C[C@@H]2C=C[C@H]1C2)c1cccc(OC2CCN(C(=O)C3CC3)CC2)c1 | – | 0.018
CCC(=O)N[C@@H]1c2ccccc2C2(CCN(Cc3ccc(OC)c(C)c3OC)CC2)[C@H]1OCCOC | 0.717 | –

Structure (SMILES) | bacterial growth OD600 (polymyxin B 0.75 µg/mL) | bacterial growth OD600 (polymyxin B 1 µg/mL)
CCC1CN(Cc2cccc(OC)c2O)Cc2cc(OC)ccc2O1 (configuration not stated) | 0.806 | –
Cc1c(-c2ccc(F)cc2)[nH]c2ccc(CNC(=O)CCn3cnnn3)cc12 | – | 0.523
CCOc1ccc(CN2CCC(N3CCC(C(=O)NC(C)C)CC3)CC2)cc1 | – | 0.903
CN(Cc1cccc(O)c1)CC1CCCN(CCc2ccc(Cl)cc2)C1 (configuration not stated) | – | 0.648
CC(=O)c1ccc(-c2cc(F)cc3c2OC(CNC(=O)Cc2cccc(F)c2)C3)s1 (configuration not stated) | 0.645 | –
CC(C)CN1C(=O)NC(Cc2cccc(F)c2)(C2CCN(C(=O)c3cc(C4CC4)n[nH]3)CC2)C1=O (configuration not stated) | 0.867 | –
COc1cc(Cl)c(CN2CCCC(CO)(Cc3cccc(Cl)c3)C2)cc1OC (configuration not stated) | – | 0.531
COc1ccc(CC2=NOC(CNC(=O)c3ccccc3-n3cccn3)C2)cc1 (configuration not stated) | 0.89 | –
CC(=O)CCC(=O)NC1CCCc2c1cnn2-c1cc(C)cc(C)c1 (configuration not stated) | 0.7 | –
COCCN1C(=O)CC(CC(=O)N2CCN(C3CCCCC3)C(=O)C2)(c2cccc(OC)c2)C1=O (configuration not stated) | 0.815 | –
COCC1CCCCN1C(=O)c1csc2nc(-c3cc(C)ccc3C)cn12 (configuration not stated) | 0.562 | –
O=C(CCCn1cncn1)NCCN1Cc2ccccc2OC(c2ccccc2F)C1 (configuration not stated) | 0.863 | –
Cc1ccccc1CC(C1CCN(C(=O)CCc2scnc2C)CC1)N(C)C(=O)Cn1cccn1 (configuration not stated) | 0.809 | –
CSc1ccccc1C(=O)NCc1c(C)ncc2c1CCN(C(=O)c1csc(C)n1)C2 | 0.826 | –
O=C(CCC1CCN(C(=O)CCc2ccc3c(c2)OCO3)CC1)NC1CC1 | – | 0.955
O=C(NC1CC(=O)N(Cc2ccc(F)cc2)C1)C(=O)c1ccccc1 (configuration not stated) | – | 0.848

Molecules shown so far that contain an NH in an aromatic ring, in the order listed:
Structure (SMILES) | bacterial growth OD600 (polymyxin B 0.75 µg/mL) | bacterial growth OD600 (polymyxin B 1 µg/mL)
CN(Cc1cc(-c2ccccc2)[nH]n1)C(=O)c1cn(Cc2ccccc2Cl)nn1 | – | 0.01
c1cc(CN2CCc3[nH]nc(-c4ccc5c(c4)OCO5)c3C2)cs1 | 0.779 | –
Cc1c(-c2ccc(F)cc2)[nH]c2ccc(CNC(=O)CCn3cnnn3)cc12 | – | 0.523
CC(C)CN1C(=O)NC(Cc2cccc(F)c2)(C2CCN(C(=O)c3cc(C4CC4)n[nH]3)CC2)C1=O (configuration not stated) | 0.867 | –
